In PMC10981689 one finds binding data, which are given here for two substances.

Amino acid sequences for entries named in this document (tags omitted).
UniProt Q80SY3: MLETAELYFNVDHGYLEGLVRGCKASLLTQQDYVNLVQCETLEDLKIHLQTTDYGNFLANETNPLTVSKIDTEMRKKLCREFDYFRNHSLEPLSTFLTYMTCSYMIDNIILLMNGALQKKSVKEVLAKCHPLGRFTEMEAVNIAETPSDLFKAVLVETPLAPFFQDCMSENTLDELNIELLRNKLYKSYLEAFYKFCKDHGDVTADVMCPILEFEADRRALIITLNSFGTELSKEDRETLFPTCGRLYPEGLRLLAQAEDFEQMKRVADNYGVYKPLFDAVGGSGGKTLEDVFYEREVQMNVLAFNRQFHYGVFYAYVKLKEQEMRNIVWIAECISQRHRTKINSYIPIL

The target in the assay is T1, Myc-tagged TM4SF19 (transmembrane 4 L six family member 19) (mouse) (UniProt E9Q9H8).
T1 sequence: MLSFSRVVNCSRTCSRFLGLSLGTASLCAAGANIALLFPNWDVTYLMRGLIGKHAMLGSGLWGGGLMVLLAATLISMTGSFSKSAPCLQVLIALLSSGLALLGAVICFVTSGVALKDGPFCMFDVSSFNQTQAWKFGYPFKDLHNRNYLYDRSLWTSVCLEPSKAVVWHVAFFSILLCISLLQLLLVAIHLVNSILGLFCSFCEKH
As to the kind of experiment: co-IP; lysate of RAW264.7 macrophages overexpressing Myc-fused TM4SF19 (50 mM Tris-HCl pH 7.6, 150 mM NaCl, 2 mM EDTA, protease inhibitor); anti-Myc or control IgG on Protein A/G magnetic beads, 300 ug lysate, 4 h at 4 °C; washed five times in TBS with 0.05% Tween-20; eluted with 0.1 M glycine pH 2.0; immunoblot. Background: A western blot detects proteins with antibodies after separation by electrophoresis.

Results are given in words; binding and its absence hold for the method and conditions named. In cells and extracts the contact can be indirect. Some binding calls cover weakened binding; strength is not graded here. Tags and fused reporters may be left off the sequences shown.

As for ATP6V0D2 (from UniProt Q80SY3 1-350), the binding result is “binds”.

For ATP6V0B (from UniProt Q91V37 1-205), the binding entry was “binds”.
